Measurements reported in PubChem BioAssay AID1508597 (Cure First, 2020).
This is an unselected part of about 2,100 reagents tested. 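Calls flag viability under 80% in either arm, not effects specific to rucaparib; the reference for percent is not stated.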 Not given: the 100% reference.

Assay: 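Knock-downs altering ovarian cancer cell survival with or without PARP inhibitor rucaparib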 (primary screen)
Cell system: human ovarian carcinoma lines grown from tumours: OCI-P5x (papillary serous) and OCI-C5x (clear cell)
Reagents: siRNA pool against human genes, 1.25 pmol siRNA per well
Timing: 72 h or 96 h, depending on the cell culture
Treatment: rucaparib 20 µM (about IC30) or vehicle, present until read-out
Measurement: 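Luminescent ATP-based viability assay read 72 or 96 h after transfection, depending on culture, given as normalised percent viability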
Reading the numbers: viability, normalised: higher = more viable cells remaining
Hit rule: 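Active when normalised viability falls below 80 percent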
Meaning of the calls: active = viability under 80%; inactive = viability 80% or more

NCOA5 (nuclear receptor coactivator 5) [SID405526316], rucaparib or vehicle Rucaparib, cell line OCI-C5x (clear cell), technical replicate 1 scored viability, normalised (%) = 65.2; active. With NCOA5 (nuclear receptor coactivator 5) [SID405526316], rucaparib or vehicle Rucaparib, cell line OCI-C5x (clear cell), technical replicate 2, the entry reads viability, normalised (%) = 53.6; active. With NCOA5 (nuclear receptor coactivator 5) [SID405526316], rucaparib or vehicle Rucaparib, cell line OCI-C5x (clear cell), technical replicate 3 the deposit lists viability, normalised (%) = 68.6; active. NCOA5 (nuclear receptor coactivator 5) [SID405526316], rucaparib or vehicle Rucaparib, cell line OCI-P5x (serous), technical replicate 1 showed viability, normalised (%) = 52.8; active. NCOA5 (nuclear receptor coactivator 5) [SID405526316], rucaparib or vehicle Rucaparib, cell line OCI-P5x (serous), technical replicate 2 showed viability, normalised (%) = 34.9; active. For NCOA5 (nuclear receptor coactivator 5) [SID405526316], rucaparib or vehicle Rucaparib, cell line OCI-P5x (serous), technical replicate 3, the entry reads viability, normalised (%) = 63.8; active.

With NCOA5 (nuclear receptor coactivator 5) [SID405526316], rucaparib or vehicle Vehicle, cell line OCI-C5x (clear cell), technical replicate 1 the deposit lists viability, normalised (%) = 55.6; active. For NCOA5 (nuclear receptor coactivator 5) [SID405526316], rucaparib or vehicle Vehicle, cell line OCI-C5x (clear cell), technical replicate 2, the values are viability, normalised (%) = 37.9; active. NCOA5 (nuclear receptor coactivator 5) [SID405526316], rucaparib or vehicle Vehicle, cell line OCI-C5x (clear cell), technical replicate 3 showed viability, normalised (%) = 69.6; active. NCOA5 (nuclear receptor coactivator 5) [SID405526316], rucaparib or vehicle Vehicle, cell line OCI-P5x (serous), technical replicate 1 showed viability, normalised (%) = 42.8; active. NCOA5 (nuclear receptor coactivator 5) [SID405526316], rucaparib or vehicle Vehicle, cell line OCI-P5x (serous), technical replicate 2 scored viability, normalised (%) = 50.3; active. For NCOA5 (nuclear receptor coactivator 5) [SID405526316], rucaparib or vehicle Vehicle, cell line OCI-P5x (serous), technical replicate 3, the values are viability, normalised (%) = 62.9; active.

With TH (tyrosine hydroxylase) [SID405526560], rucaparib or vehicle Rucaparib, cell line OCI-C5x (clear cell), technical replicate 1, the entry reads viability, normalised (%) = 73.3; active. For TH (tyrosine hydroxylase) [SID405526560], rucaparib or vehicle Rucaparib, cell line OCI-C5x (clear cell), technical replicate 2 the deposit lists viability, normalised (%) = 65.6; active. TH (tyrosine hydroxylase) [SID405526560], rucaparib or vehicle Rucaparib, cell line OCI-C5x (clear cell), technical replicate 3 scored viability, normalised (%) = 41; active. With TH (tyrosine hydroxylase) [SID405526560], rucaparib or vehicle Rucaparib, cell line OCI-P5x (serous), technical replicate 1, the entry reads viability, normalised (%) = 59.5; active. For TH (tyrosine hydroxylase) [SID405526560], rucaparib or vehicle Rucaparib, cell line OCI-P5x (serous), technical replicate 2, the values are viability, normalised (%) = 49.1; active. With TH (tyrosine hydroxylase) [SID405526560], rucaparib or vehicle Rucaparib, cell line OCI-P5x (serous), technical replicate 3, the entry reads viability, normalised (%) = 59; active.

With TH (tyrosine hydroxylase) [SID405526560], rucaparib or vehicle Vehicle, cell line OCI-C5x (clear cell), technical replicate 1 the deposit lists viability, normalised (%) = 40.9; active. TH (tyrosine hydroxylase) [SID405526560], rucaparib or vehicle Vehicle, cell line OCI-C5x (clear cell), technical replicate 2 gave viability, normalised (%) = 59.7; active. TH (tyrosine hydroxylase) [SID405526560], rucaparib or vehicle Vehicle, cell line OCI-C5x (clear cell), technical replicate 3 showed viability, normalised (%) = 54.7; active. TH (tyrosine hydroxylase) [SID405526560], rucaparib or vehicle Vehicle, cell line OCI-P5x (serous), technical replicate 1 showed viability, normalised (%) = 56.8; active. For TH (tyrosine hydroxylase) [SID405526560], rucaparib or vehicle Vehicle, cell line OCI-P5x (serous), technical replicate 2 the deposit lists viability, normalised (%) = 66.9; active. TH (tyrosine hydroxylase) [SID405526560], rucaparib or vehicle Vehicle, cell line OCI-P5x (serous), technical replicate 3 gave viability, normalised (%) = 63.7; active.

For MAP3K2 (mitogen-activated protein kinase kinase kinase 2) [SID405527902], rucaparib or vehicle Rucaparib, cell line OCI-C5x (clear cell), technical replicate 1 the deposit lists viability, normalised (%) = 98.4; inactive. For MAP3K2 (mitogen-activated protein kinase kinase kinase 2) [SID405527902], rucaparib or vehicle Rucaparib, cell line OCI-C5x (clear cell), technical replicate 2, the entry reads viability, normalised (%) = 55.2; active. For MAP3K2 (mitogen-activated protein kinase kinase kinase 2) [SID405527902], rucaparib or vehicle Rucaparib, cell line OCI-C5x (clear cell), technical replicate 3 the deposit lists viability, normalised (%) = 70.3; active. MAP3K2 (mitogen-activated protein kinase kinase kinase 2) [SID405527902], rucaparib or vehicle Rucaparib, cell line OCI-P5x (serous), technical replicate 1 scored viability, normalised (%) = 85.4; inactive. With MAP3K2 (mitogen-activated protein kinase kinase kinase 2) [SID405527902], rucaparib or vehicle Rucaparib, cell line OCI-P5x (serous), technical replicate 2, the values are viability, normalised (%) = 101; inactive. For MAP3K2 (mitogen-activated protein kinase kinase kinase 2) [SID405527902], rucaparib or vehicle Rucaparib, cell line OCI-P5x (serous), technical replicate 3, the values are viability, normalised (%) = 98; inactive.

With MAP3K2 (mitogen-activated protein kinase kinase kinase 2) [SID405527902], rucaparib or vehicle Vehicle, cell line OCI-C5x (clear cell), technical replicate 1, the entry reads viability, normalised (%) = 55.9; active. MAP3K2 (mitogen-activated protein kinase kinase kinase 2) [SID405527902], rucaparib or vehicle Vehicle, cell line OCI-C5x (clear cell), technical replicate 2 gave viability, normalised (%) = 52.8; active. MAP3K2 (mitogen-activated protein kinase kinase kinase 2) [SID405527902], rucaparib or vehicle Vehicle, cell line OCI-C5x (clear cell), technical replicate 3 showed viability, normalised (%) = 54; active. MAP3K2 (mitogen-activated protein kinase kinase kinase 2) [SID405527902], rucaparib or vehicle Vehicle, cell line OCI-P5x (serous), technical replicate 1 scored viability, normalised (%) = 79.6; active. For MAP3K2 (mitogen-activated protein kinase kinase kinase 2) [SID405527902], rucaparib or vehicle Vehicle, cell line OCI-P5x (serous), technical replicate 2, the values are viability, normalised (%) = 69.4; active. MAP3K2 (mitogen-activated protein kinase kinase kinase 2) [SID405527902], rucaparib or vehicle Vehicle, cell line OCI-P5x (serous), technical replicate 3 gave viability, normalised (%) = 86.3; inactive.

Already shown: 2 of the entries above.
TH (tyrosine hydroxylase) [SID405526560], rucaparib or vehicle Rucaparib, cell line OCI-P5x (serous), technical replicate 2 → viability, normalised (%): 49.1; Outcome: active
TH (tyrosine hydroxylase) [SID405526560], rucaparib or vehicle Rucaparib, cell line OCI-P5x (serous), technical replicate 3 → viability, normalised (%): 59; Outcome: active
